This is one part of the list. The calls rarely recur for the same compound in another form.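 Kinases were expressed as nanoluciferase fusions in K562 cells and luminescence was read every 4 h between 2 and 18 h as percent of control, DMSO set to 100% and a positive control to 0%. A time point counts as decreased when the signal drops significantly (2 sigma). The hit call is the authors' own, does not follow from the count of time points alone, and its rule is not shown.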
Experiments:
Conditions in all cases: K562; 2-18 h
STK38 = STK38 (UniProt Q15208); assay: kinase-Nluc reporter destabilization hit call (1 = scored as downregulated) (binary); higher = compound decreases kinase abundance
SYK = SYK (UniProt P43405); assay: as above
TEC = TEC (UniProt P42680); assay: as above
TYK2 = TYK2 (UniProt P29597); assay: as above
ULK3 = ULK3 (UniProt Q6PHR2); assay: as above
YES1 = YES1 (UniProt P07947); assay: as above
ZAK = ZAK (UniProt Q9NYL2); assay: as above
ZAP70 = ZAP70 (UniProt P43403); assay: as above
ABL1 = ABL1 (UniProt P00519); assay: number of time points (of 5) at which kinase-Nluc abundance scored as decreased, DMSO-normalised (count); higher = more persistent destabilization
AKT1 = AKT1 (UniProt P31749); assay: as above
ALK = ALK (UniProt Q9UM73); assay: as above
ARAF = ARAF (UniProt P10398); assay: as above
AURKA = AURKA (UniProt O14965); assay: as above
AURKB = AURKB (UniProt Q96GD4); assay: as above
AURKC = AURKC (UniProt Q9UQB9); assay: as above
BLK = BLK (UniProt P51451); assay: as above
BMX = BMX (UniProt P51813); assay: as above
BRAF = BRAF (UniProt P15056); assay: as above
BRAF_V600E = assay: as above
BTK = BTK (UniProt Q06187); assay: as above

By UniProt entry, the sequences of proteins in these tests, tags left out. Where a name states a change or a piece, a line headed by the entry shows the natural chain unless it says otherwise.
UniProt Q15208: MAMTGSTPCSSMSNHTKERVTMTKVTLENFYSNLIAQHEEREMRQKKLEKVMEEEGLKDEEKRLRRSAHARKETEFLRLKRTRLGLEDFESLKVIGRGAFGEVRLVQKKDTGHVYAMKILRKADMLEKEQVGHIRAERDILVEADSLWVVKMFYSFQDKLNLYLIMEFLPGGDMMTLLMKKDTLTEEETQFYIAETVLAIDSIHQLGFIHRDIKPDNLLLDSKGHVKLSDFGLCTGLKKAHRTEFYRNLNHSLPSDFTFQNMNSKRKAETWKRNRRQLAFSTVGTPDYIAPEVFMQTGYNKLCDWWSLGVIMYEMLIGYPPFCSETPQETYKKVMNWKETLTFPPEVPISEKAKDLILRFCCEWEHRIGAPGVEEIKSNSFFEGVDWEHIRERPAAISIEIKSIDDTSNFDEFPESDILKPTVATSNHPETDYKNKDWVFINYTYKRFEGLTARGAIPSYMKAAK
UniProt P42680: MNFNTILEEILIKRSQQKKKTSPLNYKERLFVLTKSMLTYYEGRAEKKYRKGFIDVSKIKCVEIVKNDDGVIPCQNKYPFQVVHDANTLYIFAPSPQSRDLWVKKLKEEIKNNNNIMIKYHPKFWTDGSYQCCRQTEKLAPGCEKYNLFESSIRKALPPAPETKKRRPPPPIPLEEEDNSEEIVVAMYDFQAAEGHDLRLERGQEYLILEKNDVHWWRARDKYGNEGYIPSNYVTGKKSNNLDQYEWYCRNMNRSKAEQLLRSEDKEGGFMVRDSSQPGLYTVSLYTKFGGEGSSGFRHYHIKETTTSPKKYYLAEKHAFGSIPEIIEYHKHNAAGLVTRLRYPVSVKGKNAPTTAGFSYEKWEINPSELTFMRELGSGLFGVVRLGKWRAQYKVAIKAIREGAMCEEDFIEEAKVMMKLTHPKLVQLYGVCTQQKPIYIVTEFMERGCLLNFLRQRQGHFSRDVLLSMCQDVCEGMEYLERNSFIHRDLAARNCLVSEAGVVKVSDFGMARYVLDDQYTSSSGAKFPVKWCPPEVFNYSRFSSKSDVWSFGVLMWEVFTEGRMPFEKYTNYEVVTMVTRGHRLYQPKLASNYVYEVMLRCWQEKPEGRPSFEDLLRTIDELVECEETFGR
UniProt Q6PHR2: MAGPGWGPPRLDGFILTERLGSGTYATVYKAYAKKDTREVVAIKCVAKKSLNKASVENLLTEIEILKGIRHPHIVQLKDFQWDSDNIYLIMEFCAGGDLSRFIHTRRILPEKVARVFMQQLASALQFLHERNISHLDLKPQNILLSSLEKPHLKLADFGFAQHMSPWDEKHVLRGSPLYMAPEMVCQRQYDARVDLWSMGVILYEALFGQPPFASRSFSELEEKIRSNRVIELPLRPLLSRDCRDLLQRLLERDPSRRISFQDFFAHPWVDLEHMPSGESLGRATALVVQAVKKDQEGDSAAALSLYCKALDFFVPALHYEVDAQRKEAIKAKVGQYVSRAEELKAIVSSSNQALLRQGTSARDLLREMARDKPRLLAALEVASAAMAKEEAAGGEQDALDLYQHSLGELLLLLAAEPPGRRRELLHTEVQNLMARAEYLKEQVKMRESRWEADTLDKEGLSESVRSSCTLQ
UniProt P07947, whole entry, looked up: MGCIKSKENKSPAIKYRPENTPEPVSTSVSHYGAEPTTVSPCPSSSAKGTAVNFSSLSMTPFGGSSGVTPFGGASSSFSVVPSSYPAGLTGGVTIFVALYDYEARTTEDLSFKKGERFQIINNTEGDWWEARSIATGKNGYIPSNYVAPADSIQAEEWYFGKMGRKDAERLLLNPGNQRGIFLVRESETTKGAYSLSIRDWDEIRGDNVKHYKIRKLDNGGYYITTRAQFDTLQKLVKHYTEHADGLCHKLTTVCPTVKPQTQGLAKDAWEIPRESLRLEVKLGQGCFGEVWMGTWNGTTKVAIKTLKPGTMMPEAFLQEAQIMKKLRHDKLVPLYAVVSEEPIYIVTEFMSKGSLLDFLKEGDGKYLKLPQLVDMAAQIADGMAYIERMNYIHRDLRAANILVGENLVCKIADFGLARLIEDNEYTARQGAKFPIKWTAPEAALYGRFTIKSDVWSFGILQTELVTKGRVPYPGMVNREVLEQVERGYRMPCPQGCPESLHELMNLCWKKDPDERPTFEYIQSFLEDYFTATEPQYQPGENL
UniProt P00519, whole entry: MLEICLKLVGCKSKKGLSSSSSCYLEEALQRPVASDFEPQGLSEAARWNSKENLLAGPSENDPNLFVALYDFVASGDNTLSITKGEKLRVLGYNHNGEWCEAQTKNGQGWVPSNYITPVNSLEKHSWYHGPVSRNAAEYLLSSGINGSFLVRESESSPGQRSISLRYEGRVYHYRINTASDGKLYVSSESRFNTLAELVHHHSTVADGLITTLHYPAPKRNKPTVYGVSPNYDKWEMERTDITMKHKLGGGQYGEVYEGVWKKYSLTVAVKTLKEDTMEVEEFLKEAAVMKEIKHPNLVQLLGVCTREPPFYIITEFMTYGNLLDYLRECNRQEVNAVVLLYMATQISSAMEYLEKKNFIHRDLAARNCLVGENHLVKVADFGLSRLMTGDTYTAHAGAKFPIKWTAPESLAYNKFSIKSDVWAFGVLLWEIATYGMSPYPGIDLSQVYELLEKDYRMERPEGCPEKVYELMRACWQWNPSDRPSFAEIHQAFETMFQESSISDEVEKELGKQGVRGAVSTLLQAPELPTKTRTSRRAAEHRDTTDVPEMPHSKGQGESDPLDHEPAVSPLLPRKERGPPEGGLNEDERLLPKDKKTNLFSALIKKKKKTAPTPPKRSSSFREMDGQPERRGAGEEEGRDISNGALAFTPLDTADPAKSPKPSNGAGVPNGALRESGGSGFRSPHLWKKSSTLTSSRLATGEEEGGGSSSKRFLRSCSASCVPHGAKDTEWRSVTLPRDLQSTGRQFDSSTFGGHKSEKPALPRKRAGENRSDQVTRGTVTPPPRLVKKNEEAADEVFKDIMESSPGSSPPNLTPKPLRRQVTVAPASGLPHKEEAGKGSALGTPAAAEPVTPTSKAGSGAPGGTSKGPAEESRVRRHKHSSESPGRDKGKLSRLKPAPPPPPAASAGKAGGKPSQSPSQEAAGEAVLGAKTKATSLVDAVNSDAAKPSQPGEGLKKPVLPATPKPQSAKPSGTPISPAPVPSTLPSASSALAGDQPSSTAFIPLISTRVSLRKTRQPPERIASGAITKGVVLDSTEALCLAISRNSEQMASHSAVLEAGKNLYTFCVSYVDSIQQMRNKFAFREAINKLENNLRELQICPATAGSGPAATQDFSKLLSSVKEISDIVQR
UniProt Q9UM73: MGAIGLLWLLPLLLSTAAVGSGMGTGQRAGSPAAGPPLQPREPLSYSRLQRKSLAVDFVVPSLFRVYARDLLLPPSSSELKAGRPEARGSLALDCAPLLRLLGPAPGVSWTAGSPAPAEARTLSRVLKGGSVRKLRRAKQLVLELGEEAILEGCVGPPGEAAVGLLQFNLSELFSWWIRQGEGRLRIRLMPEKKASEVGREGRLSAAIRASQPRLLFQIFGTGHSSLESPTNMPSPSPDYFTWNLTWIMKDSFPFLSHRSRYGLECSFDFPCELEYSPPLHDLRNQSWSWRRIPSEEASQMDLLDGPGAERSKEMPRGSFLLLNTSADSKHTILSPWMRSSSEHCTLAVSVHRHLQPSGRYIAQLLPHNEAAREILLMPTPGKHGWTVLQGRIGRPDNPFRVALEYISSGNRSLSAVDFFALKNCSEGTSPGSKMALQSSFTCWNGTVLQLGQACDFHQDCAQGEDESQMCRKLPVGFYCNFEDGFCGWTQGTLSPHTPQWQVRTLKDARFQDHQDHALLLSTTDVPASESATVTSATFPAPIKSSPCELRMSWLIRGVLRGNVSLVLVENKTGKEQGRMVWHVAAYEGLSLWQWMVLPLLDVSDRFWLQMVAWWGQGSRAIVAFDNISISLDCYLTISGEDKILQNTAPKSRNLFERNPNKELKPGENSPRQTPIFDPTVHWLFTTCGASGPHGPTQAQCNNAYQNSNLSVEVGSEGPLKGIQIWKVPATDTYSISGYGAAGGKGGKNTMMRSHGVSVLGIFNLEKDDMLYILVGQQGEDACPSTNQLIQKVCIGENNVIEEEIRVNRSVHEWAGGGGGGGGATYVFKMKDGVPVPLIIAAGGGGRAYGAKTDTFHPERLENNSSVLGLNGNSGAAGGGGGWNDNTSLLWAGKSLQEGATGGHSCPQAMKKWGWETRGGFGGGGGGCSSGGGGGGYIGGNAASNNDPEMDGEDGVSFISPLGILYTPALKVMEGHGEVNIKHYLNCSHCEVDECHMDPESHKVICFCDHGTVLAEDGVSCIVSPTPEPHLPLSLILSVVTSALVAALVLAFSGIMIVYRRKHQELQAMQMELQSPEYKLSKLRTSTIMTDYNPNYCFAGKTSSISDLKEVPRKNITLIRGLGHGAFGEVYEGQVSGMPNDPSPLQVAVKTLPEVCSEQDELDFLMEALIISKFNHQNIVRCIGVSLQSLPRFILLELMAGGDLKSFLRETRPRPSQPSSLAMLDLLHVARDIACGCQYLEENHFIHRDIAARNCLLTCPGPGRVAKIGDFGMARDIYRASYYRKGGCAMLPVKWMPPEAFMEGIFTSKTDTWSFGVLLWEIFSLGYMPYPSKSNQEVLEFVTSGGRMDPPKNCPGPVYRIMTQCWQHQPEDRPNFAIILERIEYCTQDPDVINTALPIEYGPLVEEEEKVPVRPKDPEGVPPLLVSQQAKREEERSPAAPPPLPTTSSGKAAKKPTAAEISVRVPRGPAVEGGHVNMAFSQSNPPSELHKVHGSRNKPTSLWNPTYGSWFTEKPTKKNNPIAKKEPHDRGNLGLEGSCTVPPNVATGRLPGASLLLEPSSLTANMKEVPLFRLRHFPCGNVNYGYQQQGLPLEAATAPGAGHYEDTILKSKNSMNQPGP
UniProt O14965: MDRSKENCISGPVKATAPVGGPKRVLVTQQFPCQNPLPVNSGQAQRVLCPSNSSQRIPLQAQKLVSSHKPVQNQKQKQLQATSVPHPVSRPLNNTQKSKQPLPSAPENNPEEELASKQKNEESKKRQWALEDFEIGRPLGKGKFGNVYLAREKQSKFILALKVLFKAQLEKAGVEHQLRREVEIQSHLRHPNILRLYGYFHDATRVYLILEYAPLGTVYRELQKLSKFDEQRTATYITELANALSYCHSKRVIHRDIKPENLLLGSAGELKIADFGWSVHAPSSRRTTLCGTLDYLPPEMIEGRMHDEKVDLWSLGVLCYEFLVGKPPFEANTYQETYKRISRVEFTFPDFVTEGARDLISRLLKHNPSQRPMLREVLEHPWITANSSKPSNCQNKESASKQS
UniProt P51813: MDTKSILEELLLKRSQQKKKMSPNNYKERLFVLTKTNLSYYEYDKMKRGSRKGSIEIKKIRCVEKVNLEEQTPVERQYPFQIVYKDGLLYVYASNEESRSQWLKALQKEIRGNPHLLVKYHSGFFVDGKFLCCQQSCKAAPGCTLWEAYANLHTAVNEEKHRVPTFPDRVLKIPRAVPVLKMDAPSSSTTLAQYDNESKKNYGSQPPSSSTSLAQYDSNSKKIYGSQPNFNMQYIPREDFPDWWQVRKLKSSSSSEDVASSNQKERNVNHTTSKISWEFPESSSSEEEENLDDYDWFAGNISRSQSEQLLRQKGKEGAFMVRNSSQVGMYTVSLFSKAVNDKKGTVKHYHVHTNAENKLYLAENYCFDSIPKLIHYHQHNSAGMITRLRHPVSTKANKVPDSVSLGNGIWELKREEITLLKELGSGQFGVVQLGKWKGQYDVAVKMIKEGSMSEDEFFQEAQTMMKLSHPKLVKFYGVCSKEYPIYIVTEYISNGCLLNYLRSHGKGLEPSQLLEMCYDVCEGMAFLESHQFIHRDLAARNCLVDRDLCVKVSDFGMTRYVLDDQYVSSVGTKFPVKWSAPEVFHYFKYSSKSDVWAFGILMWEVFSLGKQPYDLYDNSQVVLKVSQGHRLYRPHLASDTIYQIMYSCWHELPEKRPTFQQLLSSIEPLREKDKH
UniProt Q06187: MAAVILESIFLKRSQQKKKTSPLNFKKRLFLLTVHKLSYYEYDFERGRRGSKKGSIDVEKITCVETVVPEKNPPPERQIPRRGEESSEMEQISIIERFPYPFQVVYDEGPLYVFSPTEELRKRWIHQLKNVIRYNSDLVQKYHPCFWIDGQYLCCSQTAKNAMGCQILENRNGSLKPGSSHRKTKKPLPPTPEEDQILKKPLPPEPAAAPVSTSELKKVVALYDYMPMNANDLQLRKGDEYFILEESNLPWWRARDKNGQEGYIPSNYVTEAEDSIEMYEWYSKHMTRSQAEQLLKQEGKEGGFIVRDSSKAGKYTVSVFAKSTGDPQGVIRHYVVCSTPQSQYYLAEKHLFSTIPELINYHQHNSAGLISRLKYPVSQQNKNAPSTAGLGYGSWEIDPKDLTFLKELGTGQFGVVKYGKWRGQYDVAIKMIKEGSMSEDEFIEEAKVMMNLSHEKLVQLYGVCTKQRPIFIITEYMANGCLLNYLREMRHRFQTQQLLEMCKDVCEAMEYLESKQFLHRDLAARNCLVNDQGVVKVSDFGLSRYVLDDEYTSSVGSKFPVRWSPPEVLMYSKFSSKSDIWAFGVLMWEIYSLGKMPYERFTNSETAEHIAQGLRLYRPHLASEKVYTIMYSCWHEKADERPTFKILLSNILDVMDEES

C/C=C(/C)C(=O)O[C@H]1[C@@H]2[C@H](C)C(=O)O[C@@H]2C[C@@H](C)[C@@H]2C=CC(=O)[C@]21C [Brevilin A] (2.5 µM)
0: number of time points (ABL1) | number of time points (AKT1) | number of time points (ALK) | number of time points (ARAF) | number of time points (AURKA) | number of time points (AURKB) | number of time points (AURKC) | number of time points (BLK) | number of time points (BMX) | number of time points (BRAF) | number of time points (BRAF_V600E) | number of time points (BTK)
inactive: kinase-Nluc reporter destabilization hit call (STK38) 0 | kinase-Nluc reporter destabilization hit call (SYK) 0 | kinase-Nluc reporter destabilization hit call (TEC) 0 | kinase-Nluc reporter destabilization hit call (TYK2) 0 | kinase-Nluc reporter destabilization hit call (ULK3) 0 | kinase-Nluc reporter destabilization hit call (YES1) 0 | kinase-Nluc reporter destabilization hit call (ZAK) 0 | kinase-Nluc reporter destabilization hit call (ZAP70) 0

COc1ccc2c(c1)[nH]c1c(C)nccc12 [Harmine] (10 µM)
0: number of time points (ABL1) | number of time points (AKT1) | number of time points (ALK) | number of time points (ARAF) | number of time points (AURKA) | number of time points (AURKB) | number of time points (AURKC) | number of time points (BLK) | number of time points (BMX) | number of time points (BRAF) | number of time points (BRAF_V600E) | number of time points (BTK)
inactive: kinase-Nluc reporter destabilization hit call (STK38) 0 | kinase-Nluc reporter destabilization hit call (SYK) 0 | kinase-Nluc reporter destabilization hit call (TEC) 0 | kinase-Nluc reporter destabilization hit call (TYK2) 0 | kinase-Nluc reporter destabilization hit call (ULK3) 0 | kinase-Nluc reporter destabilization hit call (YES1) 0 | kinase-Nluc reporter destabilization hit call (ZAK) 0 | kinase-Nluc reporter destabilization hit call (ZAP70) 0

CC(=O)OC(C)(C)/C=C/C(=O)[C@](C)(O)[C@H]1[C@H](O)C[C@@]2(C)[C@@H]3CC=C4[C@@H](C=C(O)C(=O)C4(C)C)[C@]3(C)C(=O)C[C@]12C [Cucurbitacin E] (2.5 µM)
3: number of time points (ALK)
0: number of time points (AKT1) | number of time points (ARAF) | number of time points (AURKC) | number of time points (BLK) | number of time points (BRAF) | number of time points (BRAF_V600E) | number of time points (BTK)
4: number of time points (AURKA) | number of time points (AURKB)
5: number of time points (ABL1)
inactive: kinase-Nluc reporter destabilization hit call (STK38) 0 | kinase-Nluc reporter destabilization hit call (SYK) 0 | kinase-Nluc reporter destabilization hit call (TEC) 0 | kinase-Nluc reporter destabilization hit call (TYK2) 0 | kinase-Nluc reporter destabilization hit call (ULK3) 0 | kinase-Nluc reporter destabilization hit call (YES1) 0 | kinase-Nluc reporter destabilization hit call (ZAK) 0 | kinase-Nluc reporter destabilization hit call (ZAP70) 0
1: number of time points (BMX)

COc1ccc2c(c1OC)C(OC)N(C)c1c-2ccc2cc3c(cc12)OCO3 (stereo not given) [Angoline] (10 µM)
0: number of time points (ABL1) | number of time points (AKT1) | number of time points (ALK) | number of time points (ARAF) | number of time points (AURKA) | number of time points (AURKB) | number of time points (AURKC) | number of time points (BLK) | number of time points (BMX) | number of time points (BRAF) | number of time points (BRAF_V600E) | number of time points (BTK)
inactive: kinase-Nluc reporter destabilization hit call (STK38) 0 | kinase-Nluc reporter destabilization hit call (SYK) 0 | kinase-Nluc reporter destabilization hit call (TEC) 0 | kinase-Nluc reporter destabilization hit call (TYK2) 0 | kinase-Nluc reporter destabilization hit call (ULK3) 0 | kinase-Nluc reporter destabilization hit call (YES1) 0 | kinase-Nluc reporter destabilization hit call (ZAK) 0 | kinase-Nluc reporter destabilization hit call (ZAP70) 0

O=Cc1cn(Cc2ccc(Cl)cc2)c2ccccc12 [Oncrasin-1] (10 µM)
inactive: kinase-Nluc reporter destabilization hit call (STK38) 0 | kinase-Nluc reporter destabilization hit call (SYK) 0 | kinase-Nluc reporter destabilization hit call (TEC) 0 | kinase-Nluc reporter destabilization hit call (TYK2) 0 | kinase-Nluc reporter destabilization hit call (ULK3) 0 | kinase-Nluc reporter destabilization hit call (YES1) 0 | kinase-Nluc reporter destabilization hit call (ZAK) 0 | kinase-Nluc reporter destabilization hit call (ZAP70) 0
0: number of time points (ABL1) | number of time points (AKT1) | number of time points (ALK) | number of time points (ARAF) | number of time points (AURKA) | number of time points (AURKB) | number of time points (AURKC) | number of time points (BLK) | number of time points (BMX) | number of time points (BRAF) | number of time points (BRAF_V600E) | number of time points (BTK)

CC(=O)Oc1ccc(/C=C/c2cc(OC(C)=O)cc(OC(C)=O)c2)cc1 [Triacetylresveratrol] (10 µM)
inactive: kinase-Nluc reporter destabilization hit call (STK38) 0 | kinase-Nluc reporter destabilization hit call (SYK) 0 | kinase-Nluc reporter destabilization hit call (TEC) 0 | kinase-Nluc reporter destabilization hit call (TYK2) 0 | kinase-Nluc reporter destabilization hit call (ULK3) 0 | kinase-Nluc reporter destabilization hit call (YES1) 0 | kinase-Nluc reporter destabilization hit call (ZAK) 0 | kinase-Nluc reporter destabilization hit call (ZAP70) 0
0: number of time points (ABL1) | number of time points (AKT1) | number of time points (ALK) | number of time points (ARAF) | number of time points (AURKA) | number of time points (AURKB) | number of time points (AURKC) | number of time points (BLK) | number of time points (BMX) | number of time points (BRAF) | number of time points (BRAF_V600E) | number of time points (BTK)

C[C@@H]1CC[C@H]2[C@@H](C)C(=O)O[C@@H]3O[C@@]4(C)CC[C@@H]1[C@]32OO4 [Artemisinin] (10 µM)
inactive: kinase-Nluc reporter destabilization hit call (STK38) 0 | kinase-Nluc reporter destabilization hit call (SYK) 0 | kinase-Nluc reporter destabilization hit call (TEC) 0 | kinase-Nluc reporter destabilization hit call (TYK2) 0 | kinase-Nluc reporter destabilization hit call (ULK3) 0 | kinase-Nluc reporter destabilization hit call (YES1) 0 | kinase-Nluc reporter destabilization hit call (ZAK) 0 | kinase-Nluc reporter destabilization hit call (ZAP70) 0
0: number of time points (ABL1) | number of time points (AKT1) | number of time points (ALK) | number of time points (ARAF) | number of time points (AURKA) | number of time points (AURKB) | number of time points (AURKC) | number of time points (BLK) | number of time points (BMX) | number of time points (BRAF) | number of time points (BRAF_V600E) | number of time points (BTK)

CCN1CCN(C(=O)Cc2ccc(Nc3ncc(F)c(Nc4ccc(C(=O)Nc5ccccc5Cl)cc4)n3)cc2)CC1 (2.5 µM)
inactive: kinase-Nluc reporter destabilization hit call (STK38) 0 | kinase-Nluc reporter destabilization hit call (SYK) 0 | kinase-Nluc reporter destabilization hit call (TEC) 0 | kinase-Nluc reporter destabilization hit call (TYK2) 0 | kinase-Nluc reporter destabilization hit call (ULK3) 0 | kinase-Nluc reporter destabilization hit call (YES1) 0 | kinase-Nluc reporter destabilization hit call (ZAK) 0 | kinase-Nluc reporter destabilization hit call (ZAP70) 0
0: number of time points (ABL1) | number of time points (AKT1) | number of time points (ALK) | number of time points (ARAF) | number of time points (AURKA) | number of time points (AURKB) | number of time points (AURKC) | number of time points (BLK) | number of time points (BMX) | number of time points (BRAF) | number of time points (BRAF_V600E) | number of time points (BTK)

Reprinted at random: 2 records from the list.
CCN1CCN(C(=O)Cc2ccc(Nc3ncc(F)c(Nc4ccc(C(=O)Nc5ccccc5Cl)cc4)n3)cc2)CC1 (2.5 µM)
inactive: kinase-Nluc reporter destabilization hit call (STK38) 0 | kinase-Nluc reporter destabilization hit call (SYK) 0 | kinase-Nluc reporter destabilization hit call (TEC) 0 | kinase-Nluc reporter destabilization hit call (TYK2) 0 | kinase-Nluc reporter destabilization hit call (ULK3) 0 | kinase-Nluc reporter destabilization hit call (YES1) 0 | kinase-Nluc reporter destabilization hit call (ZAK) 0 | kinase-Nluc reporter destabilization hit call (ZAP70) 0
0: number of time points (ABL1) | number of time points (AKT1) | number of time points (ALK) | number of time points (ARAF) | number of time points (AURKA) | number of time points (AURKB) | number of time points (AURKC) | number of time points (BLK) | number of time points (BMX) | number of time points (BRAF) | number of time points (BRAF_V600E) | number of time points (BTK)

CC(=O)Oc1ccc(/C=C/c2cc(OC(C)=O)cc(OC(C)=O)c2)cc1 [Triacetylresveratrol] (10 µM)
inactive: kinase-Nluc reporter destabilization hit call (STK38) 0 | kinase-Nluc reporter destabilization hit call (SYK) 0 | kinase-Nluc reporter destabilization hit call (TEC) 0 | kinase-Nluc reporter destabilization hit call (TYK2) 0 | kinase-Nluc reporter destabilization hit call (ULK3) 0 | kinase-Nluc reporter destabilization hit call (YES1) 0 | kinase-Nluc reporter destabilization hit call (ZAK) 0 | kinase-Nluc reporter destabilization hit call (ZAP70) 0
0: number of time points (ABL1) | number of time points (AKT1) | number of time points (ALK) | number of time points (ARAF) | number of time points (AURKA) | number of time points (AURKB) | number of time points (AURKC) | number of time points (BLK) | number of time points (BMX) | number of time points (BRAF) | number of time points (BRAF_V600E) | number of time points (BTK)

Remaining list, next part.

C[S+]([O-])/C=C/CCN=C=S (stereo not given) [Sulforaphene] (10 µM)
0: number of time points (ABL1) | number of time points (AKT1) | number of time points (ALK) | number of time points (ARAF) | number of time points (AURKA) | number of time points (AURKB) | number of time points (AURKC) | number of time points (BLK) | number of time points (BMX) | number of time points (BRAF) | number of time points (BRAF_V600E) | number of time points (BTK)
inactive: kinase-Nluc reporter destabilization hit call (STK38) 0 | kinase-Nluc reporter destabilization hit call (SYK) 0 | kinase-Nluc reporter destabilization hit call (TEC) 0 | kinase-Nluc reporter destabilization hit call (TYK2) 0 | kinase-Nluc reporter destabilization hit call (ULK3) 0 | kinase-Nluc reporter destabilization hit call (YES1) 0 | kinase-Nluc reporter destabilization hit call (ZAK) 0 | kinase-Nluc reporter destabilization hit call (ZAP70) 0

C/C(O)=C(\C#N)C(=O)Nc1cc(Br)ccc1Br (10 µM)
0: number of time points (ABL1) | number of time points (AKT1) | number of time points (ALK) | number of time points (ARAF) | number of time points (AURKA) | number of time points (AURKB) | number of time points (AURKC) | number of time points (BLK) | number of time points (BMX) | number of time points (BRAF) | number of time points (BRAF_V600E) | number of time points (BTK)
inactive: kinase-Nluc reporter destabilization hit call (STK38) 0 | kinase-Nluc reporter destabilization hit call (SYK) 0 | kinase-Nluc reporter destabilization hit call (TEC) 0 | kinase-Nluc reporter destabilization hit call (TYK2) 0 | kinase-Nluc reporter destabilization hit call (ULK3) 0 | kinase-Nluc reporter destabilization hit call (YES1) 0 | kinase-Nluc reporter destabilization hit call (ZAK) 0 | kinase-Nluc reporter destabilization hit call (ZAP70) 0
